Among all 400,000 compounds or so, about 13,000 (3.2%) were called active. This list was built around the results that the source calls inconclusive (neither active nor inactive); the mix of calls is not that of the screen. The call rests on the fitted dose curve; in most records, active means well fitted cell-killing curve with a large enough effect; inconclusive means small, poorly fitted or top-dose-only effect, or effect the other way; inactive means flat fitted curve, though single readings scatter. Where the call is inconclusive, the potency comes from a doubtful curve fit.
test: qHTS assay for MDR1-selective chemotherapeutics: Primary screen using the drug-selected MDR subline cells KB-V1; details: KB-V1 MDR cells viability, CellTiter-Glo, 72 h; activity change, negative = cytotoxicity: at 46.1 µM (top of the series); further: nearly all actives have a fitted effect of over 60% in size
Method in brief: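 Cytotoxicity toward P-gp-expressing KB-V1 cells was determined as loss of CellTiter-Glo luminescence after 72 h at 37 degrees C. Compounds were tested in quantitative HTS format across a concentration range, with curves fitted to normalized data.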
On the % scale 0 is the no-effect control and ±100 the full control effect; potency means the concentration at half of the fitted maximal effect.

Compound | Potency | activity change, negative = cytotoxicity
CCc1c(C)nc2cc(-c3cccs3)[nH]n2c1=O | inconclusive: 16.4 µM [cytotoxic, partial curve, poor fit] | –
CCCSCCCNC(=O)CN1C(=O)COc2ccc(S(=O)(=O)N3CCC(C)CC3)cc21 | inconclusive: 6.51 µM [cytotoxic, partial curve] | –
CCN(CC)C(=O)/C(=C/c1cn(S(=O)(=O)N(C)C)c2ccccc12)NC(=O)c1ccc(OC)cc1 | inconclusive: 5.8 µM [cytotoxic, partial curve, poor fit] | –
COc1cccc(-c2nc(CS(=O)(=O)CC(=O)NCc3ccccc3OC)c(C)o2)c1 | inactive | –
Cc1ccc(CCNC(=O)CN2CCN(Cc3ccc(Cl)cc3)C2=O)cc1 | inactive | –
Cc1ccnc(NC(=S)Nc2cccc([S+](=O)([O-])Nc3ccccc3F)c2)c1 | inactive | –
CC(Sc1nc(N)cc(N)n1)C(=O)NCC1CCCO1 (centres undefined) | inconclusive: 20.6 µM [rising, single point] | –
Cc1ccc2nc(Nc3nc(C)cc(C(F)(F)F)n3)nc(C)c2c1 | inconclusive: 1.64 µM [cytotoxic, full curve] | –
CCC1(C)Cc2ccccc2-c2nc(NCCCO)n(-c3ccccc3)c(=O)c21 (centres undefined) | inconclusive: 9.2 µM [cytotoxic, partial curve, poor fit] | –
CC(=O)c1ccc(NC(=O)c2ccc(CN3C(=O)CCn4nc(C)cc43)cc2)cc1 | inactive | –
CC(=O)Nc1cc(-c2cccc(C(=O)N(C)C)c2)cn2c(-c3cccc(C(F)(F)F)c3)cnc12 | inactive | –
CC(C)(C)NC(=O)COC(=O)c1ccc2c(c1)C(=O)N(Cc1ccco1)C2=O | inactive | –
Cc1cc(=O)oc2cc(NS(=O)(=O)c3ccc(F)cc3)ccc12 | inconclusive: 29.1 µM [cytotoxic, partial curve, poor fit] | –
CN(C)C(=O)c1cccc(-c2cnc3c(NC=O)cc(-c4cccc(F)c4)cn23)c1 | inconclusive: 18.4 µM [cytotoxic, single point] | –
Cc1cccc(-c2cc3nc(-c4ccccc4)cc(N4CCC5(CC4)OCCO5)n3n2)c1 | inactive | –
CC(C)n1nc(C(=O)OCC(=O)c2c[nH]c3ccccc23)c2ccccc2c1=O | inactive | –
CCc1n[nH]c(=S)n1/N=C/c1cc(Br)c(OC)cc1OC | inconclusive: 20.6 µM [rising, partial curve, poor fit] | –
Cc1cccn2c(NC(=O)c3ccccc3F)c(-c3ccccc3)nc12 | – | inconclusive: -15%
CC(C)(C)c1ccc(-n2ncc3c2CCCC3NC(=O)CCn2cncn2)cc1 (centres undefined) | inconclusive: 13 µM [cytotoxic, partial curve] | –
Cc1ccc(C(=O)OCC(=O)Nc2cc(F)ccc2F)cc1NC(=O)c1ccco1 | inconclusive: 13 µM [cytotoxic, partial curve, poor fit] | –
COc1ccc(NC(=O)/C(Cl)=C(/Cl)S(=O)Cc2ccccc2)cn1 (centres undefined) | active: 8.2 µM | –
CC(C)(C)S(=O)(=O)N1C[C@@H]2CC/C=C\C/C=C\2[C@H]1CCO | inactive | –

Compound | Potency | activity change, negative = cytotoxicity
Cc1ccc(C(C(=O)NCC2CCCO2)N(C(=O)c2snc(C(N)=O)c2N)c2ccc(C)c(C)c2)o1 (centres undefined) | inconclusive: 23.1 µM [cytotoxic, partial curve, poor fit] | –
CCN(CC)c1ccc(NC(=O)CC2Oc3ccccc3NC2=O)c(C)c1 (centres undefined) | inconclusive: 16.4 µM [cytotoxic, partial curve, poor fit] | –
CC(CCc1ccccc1)NC(=O)COC(=O)C(CCC(N)=O)NC(=O)c1ccc(F)cc1 (centres undefined) | inactive | –
CC1Cc2ccccc2N1C(=O)c1ccnc(C(C)(C)C)c1 (centres undefined) | inactive | –
CC(C)Nc1nnc(SCC(=O)c2c[nH]c3ccccc23)s1 | inconclusive: 16.4 µM [cytotoxic, single point] | –
Cc1c(NS(=O)(=O)c2cccc(C(=O)NCc3ccccc3)c2)c(=O)n(-c2ccccc2)n1C | inconclusive: 23.1 µM [rising, partial curve] | –
CC(=O)/C(C#N)=C1\NC(=O)C(Cc2ccccc2C)S1 (centres undefined) | active: 5.8 µM | –
COC(=O)c1ccccc1NC(=O)c1cc(=O)c2ccc(C)c(C)c2o1 | inactive | –
CC(C)(C)OC(=O)NCCc1nnc(SCC(=O)c2ccc(Cl)cc2)o1 | inconclusive: 11.6 µM [cytotoxic, partial curve] | –
O=C(C1=C(O)C(=O)N(c2nc3ccc(Cl)cc3s2)C1c1ccco1)c1ccco1 (centres undefined) | inconclusive: 29.1 µM [cytotoxic, single point] | –
Cn1nnnc1SCCCNCc1ccccc1OCc1ccccc1F | inactive | –
Cc1ccc(-n2cc(-c3ccccc3)c3c(N4CCOCC4)ncnc32)cc1 | inconclusive: 20.6 µM [cytotoxic, single point] | –
CC1CCCC(NC(=O)CNCc2ccccc2F)C1C (centres undefined) | inconclusive: 10.3 µM [cytotoxic, partial curve, poor fit] | –
Cc1ccc(C(C)NC(=O)CSc2ccc(S(=O)(=O)N3CCOCC3)cn2)cc1C (centres undefined) | active: 18.4 µM | –
COC(=O)[C@@]12C[C@@H](CC(=O)NCCc3ccccc3OC)C(=O)N(Cc3cccc4ccccc34)C1=CCC(C)(C)C2 | active: 23.1 µM | –
COc1ccccc1CNC(=O)Nc1nnc(-c2ccncc2)s1 | inactive | –
COc1cccc(Oc2ccc(OC)cc2C(=O)O)c1 | inconclusive: 29.1 µM [rising, partial curve, poor fit] | –
COCCCn1cc(C(=O)c2ccccc2OCC(=O)Nc2cccc(F)c2)cc(C#N)c1=O | inconclusive: 2.91 µM [cytotoxic, full curve] | –
CC(=O)Oc1ccc(C(=O)Nc2cccc(C(=O)c3ccc(C)c(C)c3)c2)cc1 | active: 9.2 µM | –
Cc1cc(=O)oc(C)c1C(=O)NCCNC(=O)c1c(C)cc(=O)oc1C | inconclusive: 18.4 µM [rising, single point] | –
C[C@@H]1Cn2cnc(C(=O)Nc3cccc(Cl)c3)c2C(=O)N1 | inconclusive: 16.4 µM [cytotoxic, partial curve, poor fit] | –
CCNc1ccc(S(=O)(=O)NCCN(C)C)cc1[N+](=O)[O-] | inactive | –

Quoted from the listing.
Potency, CC1Cc2ccccc2N1C(=O)c1ccnc(C(C)(C)C)c1 (centres undefined) reads inactive
Potency, CC(=O)Oc1ccc(C(=O)Nc2cccc(C(=O)c3ccc(C)c(C)c3)c2)cc1 reads active: 9.2 µM

Source: PubChem BioAssay AID1347076 (National Center for Advancing Translational Sciences (NCATS), 2019)
